Measurements reported in PubChem BioAssay AID743121 (NCATS, 2013)
Screen: 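Genes whose silencing strengthens cell killing by camptothecin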 (primary screen). Cells: MDA-MB-231 cells, a human breast cancer line. Reagents: single siRNA against human genes, 20 nM siRNA (0.8 pmol per well). Timing: 120 h (drug added 48 h after transfection, read 72 h later). Challenge: camptothecin 20 nM (about EC30) for 72 h; vehicle 0.1% DMSO in parallel plates. Read-out: 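Cell viability by ATP luminescence (CellTiter-Glo) as % of non-targeting siRNA wells, and the log2 ratio of viability without drug over viability with camptothecin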. Scale: log2 vehicle/camptothecin viability: higher = stronger sensitisation to camptothecin; viability with camptothecin and viability without drug: higher = more viable cells. Hit rule: 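Each gene scored by redundant siRNA activity (RSA) over its individual siRNA ratios; a gene is called active at p < 0.001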.
Here is one part, drawn at random, of about 26,000 reagents. 167 of them (0.63%) were called active. 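Calls are per gene from RSA p-values that are not deposited; an individual active-marked siRNA can sensitise only weakly.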 Entries without a mark were called inactive. The numbers tell different reagents against one gene apart. Reagent sequences are not shown.

| gene symbol | reagent | log2 vehicle/camptothecin viability | viability with camptothecin (% of control) | viability without drug (% of control) |
| --- | --- | --- | --- | --- |
| TARS1 (threonyl-tRNA synthetase 1) | 1 | -0.715 | 33.5 | 20.4 |
| TARS1 (threonyl-tRNA synthetase 1) | 2 | -0.272 | 78.2 | 64.8 |
| TARS1 (threonyl-tRNA synthetase 1) | 3 | -0.321 | 103 | 82.1 |
| TARS1 (threonyl-tRNA synthetase 1) | 4 | -0.322 | 97 | 77.6 |
| C5AR2 (complement C5a receptor 2) | 1 | -0.428 | 57 | 42.4 |
| C5AR2 (complement C5a receptor 2) | 2 | -0.254 | 83.8 | 70.3 |
| C5AR2 (complement C5a receptor 2) | 3 | -0.276 | 76 | 62.7 |
| C5AR2 (complement C5a receptor 2) | 4 | -0.67 | 61 | 38.3 |
| SERPINB4 (serpin family B member 4) | 1 | 0.106 | 85.2 | 91.7 |
| SERPINB4 (serpin family B member 4) | 2 | 0.0493 | 22 | 22.8 |
| SERPINB4 (serpin family B member 4) | 3 | 0.327 | 69.9 | 87.7 |
| CSMD1 (CUB and Sushi multiple domains 1) | 1 | -0.173 | 108 | 95.9 |
| CSMD1 (CUB and Sushi multiple domains 1) | 2 | -0.524 | 72.7 | 50.6 |
| CSMD1 (CUB and Sushi multiple domains 1) | 3 | -0.37 | 85.1 | 65.8 |
| CSMD1 (CUB and Sushi multiple domains 1) | 4 | -0.175 | 107 | 94.7 |
| STX6 (syntaxin 6) | 1 | -0.2 | 45.1 | 39.2 |
| STX6 (syntaxin 6) | 2 | -0.303 | 110 | 89.2 |
| STX6 (syntaxin 6) | 3 | -0.283 | 94.8 | 77.9 |
| PAWR (pro-apoptotic WT1 regulator) | 1 | -0.00572 | 84.7 | 84.4 |
| PAWR (pro-apoptotic WT1 regulator) | 2 | -0.124 | 81.8 | 75.1 |
| PAWR (pro-apoptotic WT1 regulator) | 3 | 0.249 | 68.7 | 81.7 |
| PAWR (pro-apoptotic WT1 regulator) | 4 | -0.535 | 91.1 | 62.9 |
| ASH1L (ASH1 like histone lysine methyltransferase) | 1 | -0.0475 | 120 | 116 |
| ASH1L (ASH1 like histone lysine methyltransferase) | 2 | 0.128 | 43.2 | 47.3 |
| ASH1L (ASH1 like histone lysine methyltransferase) | 3 | -0.183 | 74.7 | 65.7 |
| ASH1L (ASH1 like histone lysine methyltransferase) | 4 | 0.398 | 38.3 | 50.5 |
| OR7A17 (olfactory receptor family 7 subfamily A member 17) | 1 | 0.282 | 79.7 | 96.9 |
| OR7A17 (olfactory receptor family 7 subfamily A member 17) | 2 | 0.756 | 51 | 86.1 |
| OR7A17 (olfactory receptor family 7 subfamily A member 17) | 3 | 0.256 | 59 | 70.4 |
| OR7A17 (olfactory receptor family 7 subfamily A member 17) | 4 | -0.33 | 75.4 | 60 |

Only “viability with camptothecin (% of control)” (4 entries from above):
TARS1 (threonyl-tRNA synthetase 1) #1 = 33.5
TARS1 (threonyl-tRNA synthetase 1) #2 = 78.2
TARS1 (threonyl-tRNA synthetase 1) #3 = 103
TARS1 (threonyl-tRNA synthetase 1) #4 = 97
